# In PubChem BioAssay AID1487 (National Center for Advancing Translational Sciences (NCATS), 2009):
# Where “and” joins values, the source holds several entries; their conditions need not be identical. Equal values may be shown once. This is one part of the list. Further columns of the screen follow, without active or inactive calls. Most of these compounds were active or inconclusive in the main read-out, so they are no random draw. The note in brackets gives the kind of curve behind each potency; many fits are weak.
# Test: qHTS Assay for Modulators of Lamin A Splicing
# Conditions: HeLa LMNA splicing GFP/RFP minigene ratio, 48 h
# Procedure, shortened: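 S3 HeLa cells stably expressing lamin A-EGFP splicing minigene plus DsRed2, 600 cells/well, 48 h compound exposure at 37C. Laser-scanning cytometry; analysed as GFP (500-530 nm)/RFP (575-640 nm) total intensity ratio; 0.5% DMSO vehicle.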
# [1] = measured here: GFP splicing reporter channel
# [2] = measured here: RFP viability control channel
Compound,AC50 [1],AC50 [2]
CCOc1ccccc1NC(=S)N1CCC(NC(=O)NC23CC4CC(CC(C4)C2)C3)CC1,"15.8 µM [rising, single point]","31.6 µM [rising, single point]"
CCCNC(=O)C1CCC(Cn2c(=O)c3sccc3n(CC(=O)N3CCC(C)CC3)c2=O)CC1 (configuration not stated),–,"0.0251 µM [falling, full curve, poor fit]"
CC(Sc1nc(-c2ccc(F)cc2)cs1)C(=O)N1c2ccccc2CC1C (configuration not stated),–,"22.4 µM [rising, single point]"
FC(F)Oc1ccc(NC(=S)NCc2nc3ccccc3[nH]2)cc1,"0.00891 µM [falling, full curve, poor fit]",–
CCN1CCN(c2cc3c(cc2F)c(=O)c(C(=O)O)cn3C2CC2)CC1,–,"708 nM [rising, full curve] and 8.91 µM [rising, partial curve]"
CCOC(=O)CSC1=C(C#N)C(c2ccccc2OCC)C(C#N)C(=O)N1 (configuration not stated),"10 µM [rising, partial curve]","10 µM [rising, partial curve]"
CCN(CC)c1ccc(N=Cc2c(C)[nH]c3ccccc23)cc1,"10 µM [rising, partial curve, poor fit]","12.6 µM [rising, partial curve]"
C[n+]1ccccc1N1CCN(c2ccccc2Cl)CC1,"20 µM [rising, partial curve, poor fit]","22.4 µM [rising, partial curve]"
COc1cccc(/C=N/NC(=O)CSc2ccccc2C)c1O,"35.5 µM [rising, single point]","28.2 µM [rising, single point]"
CN(CC(=O)Nc1cccc(C(F)(F)F)c1)S(=O)(=O)c1ccc2[nH]c3c(c2c1)CCCC3,"6.31 µM [falling, partial curve, poor fit]",–
COc1ccc(Cl)cc1NC(=O)CSc1nccn1Cc1ccco1,"11.2 µM [rising, partial curve]",–
CC(=O)Nc1cccc(C(=O)/C=C/c2ccc(/C=C/C(=O)c3cccc(NC(C)=O)c3)cc2)c1,"35.5 µM [falling, single point]","35.5 µM [falling, single point]"
CCN(CC)S(=O)(=O)c1cc(NC(=O)C(C)OC(=O)c2[nH]c(C)c(C(C)=O)c2C)ccc1C (configuration not stated),–,"11.2 µM [rising, single point]"
CC(C)Oc1cccc(C(=O)NC(=S)Nc2ccc3c4c(cccc24)CC3)c1,–,"14.1 µM [rising, single point]"
O=C1NC(=Nc2cccc(Cl)c2)SC1Cc1cccc(Cl)c1Cl (configuration not stated),"22.4 µM [falling, single point]","25.1 µM [falling, single point]"
O=C(CN(CCCN1CCOCC1)C(=O)Cn1nnc(-c2ccc(F)cc2)n1)NC1CCCCC1,–,"0.1 µM [falling, full curve, poor fit]"
CC(=O)Nc1ccc(Sc2ncnc3scc(-c4ccccc4)c23)cc1,–,"20 µM [rising, single point]"
CCN1C(=O)c2cccc3c(S(=O)(=O)Nc4nc(C)cs4)ccc1c23,"31.6 µM [falling, single point]","3.55 µM [rising, single point]"
Cc1onc(-c2c(F)cccc2Cl)c1C(=O)OCC(=O)Nc1c(C)n(C)n(-c2ccccc2)c1=O,–,"31.6 µM [rising, single point]"
CC(C)N1C(=O)/C(=C\c2nc3ccccc3c(=O)[nH]2)c2ccccc21,"10 µM [rising, partial curve, poor fit]","0.0355 µM [falling, full curve, poor fit]"
COc1cc(/C=C2\C(=O)NN(c3ccccc3)C2=O)ccc1OCC(N)=O,–,"0.631 µM [falling, full curve, poor fit]"
COc1ccc(C(=O)Nc2ccc3nc(SCC(=O)N4CCCc5ccccc54)sc3c2)cc1,"17.8 µM [falling, partial curve, poor fit]","0.0224 µM [falling, full curve, poor fit]"
C=CCc1c(C)nc(-c2ccccc2)nc1N/N=C/c1ccncc1,"5.01 µM [falling, single point]",–
Cc1nn(C(=O)c2cccc([N+](=O)[O-])c2)c(C)c1Sc1ccccc1,"0.891 µM [rising, partial curve, poor fit]","4.47 µM [rising, full curve]"
Cc1cc(C)cc(N2C(=O)N(CC(=O)c3ccc(Br)cc3)c3ccccc3S2(=O)=O)c1,"0.1 µM [falling, full curve]",–
CCc1cc2c(=O)c(-c3nc4ccccc4n3C)c(C)oc2c(CN2CCOCC2)c1O,–,"12.6 µM [rising, partial curve]"

# Another view of part of the listing above:
Compound | AC50 [1] | AC50 [2]
CCN1C(=O)c2cccc3c(S(=O)(=O)Nc4nc(C)cs4)ccc1c23 | 31.6 µM [falling, single point] | 3.55 µM [rising, single point]
Cc1onc(-c2c(F)cccc2Cl)c1C(=O)OCC(=O)Nc1c(C)n(C)n(-c2ccccc2)c1=O | – | 31.6 µM [rising, single point]
CC(C)N1C(=O)/C(=C\c2nc3ccccc3c(=O)[nH]2)c2ccccc21 | 10 µM [rising, partial curve, poor fit] | 0.0355 µM [falling, full curve, poor fit]
COc1cc(/C=C2\C(=O)NN(c3ccccc3)C2=O)ccc1OCC(N)=O | – | 0.631 µM [falling, full curve, poor fit]

# Carrying on.

Compound,AC50 [1],AC50 [2]
Cc1cc(C)nc(SCc2nnc(SCC#N)n2-c2cccc(Cl)c2)n1,"10 µM [rising, partial curve, poor fit]","8.91 µM [rising, partial curve]"
COc1cccc(C(=O)C2CCCN(C(=O)c3ccc(C#CC(C)(C)O)cc3)C2)c1 (configuration not stated),–,"12.6 µM [falling, partial curve, poor fit]"
CS(=O)(=O)Nc1ccc(C2=NN(C(=O)C3CCCCC3)C(c3cccs3)C2)cc1 (configuration not stated),–,"14.1 µM [rising, single point]"
Cc1ccc(CCCOC(=O)C[N+]2(C)CCCCC2)cc1,–,"0.316 µM [falling, full curve, poor fit]"
CN(C)c1cccc(C(=O)OCC(=O)N2CCc3ccccc3C2)c1,"0.01 µM [rising, full curve, poor fit]",–
COc1cc(NS(C)(=O)=O)ccc1Nc1c2ccccc2nc2ccccc12,"5.62 µM [falling, partial curve]","35.5 µM [falling, partial curve, poor fit]"
O=c1[nH]c(=S)[nH]c2c1C(c1cc([N+](=O)[O-])c(N3CCOCC3)cc1N1CCOCC1)O2 (configuration not stated),"15.8 µM [falling, partial curve, poor fit]",–
Fc1cccc(COc2ccccc2C(=S)N2CCCC2)c1,–,"4.47 µM [rising, single point]"
COc1cc(/C=N/NC(=O)COc2cc(C)cc(C)c2)ccc1OS(=O)(=O)c1ccc(C)cc1,–,"7.94 µM [rising, partial curve]"
CCc1ccc(-n2nc(C)c3c(C(=O)Nc4cc(OC)cc(OC)c4)cc(C)nc32)cc1,–,"0.00316 µM [falling, full curve, poor fit]"
COCCNC(=S)N/N=C(\C)c1ccccc1O,"20 µM [rising, partial curve, poor fit]","14.1 µM [rising, single point]"
Cc1nn(-c2ccccc2)c(Cl)c1C(=O)OC(C)C(=O)Nc1ccc2c(c1)OCO2 (configuration not stated),"11.2 µM [rising, single point]","25.1 µM [rising, single point]"
Cc1cc(C(=O)Nn2c(-c3ccc(Br)cc3)nc3ccccc3c2=O)ccc1[N+](=O)[O-],–,"25.1 µM [rising, partial curve]"
O=C(CSC1=Nc2ccccc2C2=NC(Cc3ccccc3)C(=O)N12)Nc1ccccc1F (configuration not stated),"2.51 µM [rising, partial curve, poor fit]","3.16 µM [rising, full curve, poor fit]"
COc1ccc(C(=O)N(Cc2ccccc2)Cc2cc3cc4c(cc3[nH]c2=O)OCCO4)cc1,–,"2.51 µM [falling, full curve, poor fit]"
CN(C(=O)CSc1nc(C2CC2)nc2ccccc12)c1nc(-c2ccccc2)cs1,"5.62 µM [rising, single point]",–
Cn1c(=O)[nH]c(=O)c2c1nc(N1CCCC1)n2CCCSc1nc2ccccc2o1,–,"12.6 µM [rising, partial curve]"
CC(C)(C)OC(=O)N1CCC[C@H]1c1nnc(SC/C=C/c2ccccc2)o1,–,"10 µM [rising, partial curve, poor fit]"
N#Cc1nc(Cc2cccc3ccccc23)oc1NCCCn1ccnc1,–,"2.82 µM [rising, single point]"
Cc1ccccc1S(=O)(=O)/N=C(/c1ccccc1)N1CCOCC1,"0.398 µM [falling, single point]","0.355 µM [falling, single point]"
COc1cc(OC)cc(C(=O)NC2CCN(C(=O)N3c4ccccc4Sc4ccccc43)CC2)c1,"20 µM [rising, single point]","35.5 µM [rising, single point]"
CCOC(=O)c1sc(NC(=O)c2ccccc2F)c(C(N)=O)c1C,"0.0891 µM [rising, full curve, poor fit]","0.1 µM [rising, single point]"
N#CC(C#N)=C1C=CC=CN1/C(=C\c1ccco1)C(=O)c1ccc(-c2ccccc2)cc1,"25.1 µM [falling, single point]","20 µM [rising, partial curve, poor fit]"
CCN1CCC[C@H]1CNC(=O)c1c(OC)ccc(Br)c1OC,"12.6 µM [falling, single point]",–
COc1cccc(OC)c1C(=O)NC1C(=O)N2C1SC(C)(C)C2C(=O)O (configuration not stated),–,"7.08 µM [falling, partial curve]"
CC1(C)CC(=O)C(C(=S)Nc2ccccc2)=C(NC2CC(C)(C)NC(C)(C)C2)C1,"35.5 µM [falling, single point]",–
